Reference: publication PMC7414915
No constants are given. Whether binding was seen depends on the method and setting. In cells and extracts the contact can be indirect. Some results given as binding are weak or reduced against the parent protein; the word gives no strength.

Amino acid sequences for entries named in this document (tags omitted). A change or cut given only in a name is not applied to a line headed by its entry.
UniProt P35222: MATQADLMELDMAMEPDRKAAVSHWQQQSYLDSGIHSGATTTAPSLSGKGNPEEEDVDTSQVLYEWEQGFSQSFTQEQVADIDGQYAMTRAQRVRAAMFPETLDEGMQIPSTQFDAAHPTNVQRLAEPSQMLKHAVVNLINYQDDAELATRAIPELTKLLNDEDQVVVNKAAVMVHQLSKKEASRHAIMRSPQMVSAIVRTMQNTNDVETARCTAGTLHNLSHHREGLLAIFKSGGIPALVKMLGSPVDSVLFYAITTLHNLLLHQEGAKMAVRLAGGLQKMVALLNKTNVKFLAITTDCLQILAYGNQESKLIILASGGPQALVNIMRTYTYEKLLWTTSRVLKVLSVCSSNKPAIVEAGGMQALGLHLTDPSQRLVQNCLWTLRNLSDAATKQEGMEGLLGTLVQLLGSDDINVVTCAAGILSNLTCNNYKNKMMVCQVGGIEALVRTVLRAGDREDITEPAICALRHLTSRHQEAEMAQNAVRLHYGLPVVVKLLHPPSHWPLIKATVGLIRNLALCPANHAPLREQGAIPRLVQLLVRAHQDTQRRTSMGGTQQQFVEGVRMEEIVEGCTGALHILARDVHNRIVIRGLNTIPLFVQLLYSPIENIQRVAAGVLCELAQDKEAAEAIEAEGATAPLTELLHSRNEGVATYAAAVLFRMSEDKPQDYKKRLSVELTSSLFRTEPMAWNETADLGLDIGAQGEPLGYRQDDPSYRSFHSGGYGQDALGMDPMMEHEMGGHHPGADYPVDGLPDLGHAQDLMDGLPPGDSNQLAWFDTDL
UniProt Q96BN8: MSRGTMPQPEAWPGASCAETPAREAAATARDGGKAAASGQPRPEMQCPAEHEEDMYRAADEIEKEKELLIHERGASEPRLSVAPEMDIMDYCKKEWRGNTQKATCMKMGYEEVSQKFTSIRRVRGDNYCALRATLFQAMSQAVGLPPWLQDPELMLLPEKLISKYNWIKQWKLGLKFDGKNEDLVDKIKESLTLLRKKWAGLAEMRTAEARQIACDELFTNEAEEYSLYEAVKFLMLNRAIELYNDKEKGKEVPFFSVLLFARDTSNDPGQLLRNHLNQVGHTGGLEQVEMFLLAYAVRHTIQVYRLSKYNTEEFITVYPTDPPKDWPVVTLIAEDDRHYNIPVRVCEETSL
UniProt P00519: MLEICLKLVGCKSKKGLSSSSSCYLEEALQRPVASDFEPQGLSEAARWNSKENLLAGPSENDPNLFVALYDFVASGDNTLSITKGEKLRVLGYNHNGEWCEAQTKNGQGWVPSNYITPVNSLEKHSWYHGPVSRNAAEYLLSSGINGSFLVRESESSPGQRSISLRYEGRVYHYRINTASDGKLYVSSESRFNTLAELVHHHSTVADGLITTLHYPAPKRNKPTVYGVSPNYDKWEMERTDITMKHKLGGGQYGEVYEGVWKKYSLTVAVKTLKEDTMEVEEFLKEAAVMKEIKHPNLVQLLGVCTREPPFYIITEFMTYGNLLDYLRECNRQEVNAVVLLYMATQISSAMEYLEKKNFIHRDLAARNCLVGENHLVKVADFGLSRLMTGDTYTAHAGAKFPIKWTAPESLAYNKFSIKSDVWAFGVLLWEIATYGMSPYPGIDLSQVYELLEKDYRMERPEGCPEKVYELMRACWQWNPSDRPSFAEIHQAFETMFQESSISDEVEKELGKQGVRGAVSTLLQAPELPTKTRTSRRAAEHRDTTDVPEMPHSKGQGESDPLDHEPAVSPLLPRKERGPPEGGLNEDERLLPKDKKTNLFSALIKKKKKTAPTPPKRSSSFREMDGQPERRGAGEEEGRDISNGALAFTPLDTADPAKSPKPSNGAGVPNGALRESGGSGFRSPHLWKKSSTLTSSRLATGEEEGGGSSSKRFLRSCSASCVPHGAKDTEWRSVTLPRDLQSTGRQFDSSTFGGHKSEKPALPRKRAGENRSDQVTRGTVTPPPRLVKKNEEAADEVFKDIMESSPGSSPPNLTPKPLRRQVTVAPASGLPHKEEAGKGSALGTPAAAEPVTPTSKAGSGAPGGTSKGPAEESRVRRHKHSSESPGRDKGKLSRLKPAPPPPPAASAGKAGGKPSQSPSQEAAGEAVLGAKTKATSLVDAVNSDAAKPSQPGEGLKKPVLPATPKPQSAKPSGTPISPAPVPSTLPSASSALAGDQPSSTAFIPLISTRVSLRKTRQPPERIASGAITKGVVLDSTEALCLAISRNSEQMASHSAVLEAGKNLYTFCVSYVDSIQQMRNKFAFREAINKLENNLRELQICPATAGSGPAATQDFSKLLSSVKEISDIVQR
UniProt Q96EP0: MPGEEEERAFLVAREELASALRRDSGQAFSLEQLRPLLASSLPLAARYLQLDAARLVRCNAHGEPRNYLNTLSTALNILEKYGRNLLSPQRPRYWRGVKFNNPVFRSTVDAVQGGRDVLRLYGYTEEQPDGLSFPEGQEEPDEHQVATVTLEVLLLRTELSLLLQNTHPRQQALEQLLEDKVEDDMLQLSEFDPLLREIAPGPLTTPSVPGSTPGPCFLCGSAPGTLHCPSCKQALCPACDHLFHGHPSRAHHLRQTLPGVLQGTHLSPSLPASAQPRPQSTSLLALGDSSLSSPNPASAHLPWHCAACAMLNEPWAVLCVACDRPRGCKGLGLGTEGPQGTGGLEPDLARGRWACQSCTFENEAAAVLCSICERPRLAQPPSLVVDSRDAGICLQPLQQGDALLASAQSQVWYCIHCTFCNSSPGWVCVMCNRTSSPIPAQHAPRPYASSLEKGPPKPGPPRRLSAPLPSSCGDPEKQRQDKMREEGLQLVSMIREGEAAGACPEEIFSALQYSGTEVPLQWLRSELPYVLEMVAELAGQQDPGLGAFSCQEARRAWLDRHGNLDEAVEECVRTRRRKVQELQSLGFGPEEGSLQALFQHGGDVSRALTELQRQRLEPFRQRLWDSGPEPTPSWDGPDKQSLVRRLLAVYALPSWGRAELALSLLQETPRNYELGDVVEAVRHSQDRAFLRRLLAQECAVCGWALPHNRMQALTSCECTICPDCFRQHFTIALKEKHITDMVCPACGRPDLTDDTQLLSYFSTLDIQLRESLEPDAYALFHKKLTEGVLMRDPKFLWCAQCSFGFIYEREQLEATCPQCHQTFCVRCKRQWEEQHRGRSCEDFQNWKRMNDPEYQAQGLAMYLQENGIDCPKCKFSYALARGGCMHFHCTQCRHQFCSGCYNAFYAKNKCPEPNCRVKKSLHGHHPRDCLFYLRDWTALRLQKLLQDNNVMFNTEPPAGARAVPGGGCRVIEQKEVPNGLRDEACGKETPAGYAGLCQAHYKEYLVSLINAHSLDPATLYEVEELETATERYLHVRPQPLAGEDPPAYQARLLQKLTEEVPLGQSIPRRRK

Assays:
[1] = target: β-catenin (human (endogenous in MDA-MB-231)) (UniProt P35222); assay: co-IP; MDA-MB-231 cells transfected with OTULIN WT or Y56D, MG132 (10 µM) 8 h, then MG132 with Dox (2 µg/ml) 8 h; endogenous HOIP and β-catenin
Flag-β-catenin WT = Flag-β-catenin WT (UniProt P35222); assay: co-IP; HEK293T cells transfected with Flag-β-catenin (WT or mutants), alone or with HA-OTULIN (WT or mutants); anti-Flag antibody; MG132 (10 µM) 16 h before harvest for the OTULIN panel
[2] = target: β-catenin (human (endogenous in MDA-MB-231)) (UniProt P35222); assay: co-IP; endogenous proteins of MDA-MB-231 lysates (IP lysis buffer: 20 mM Tris pH 7.0, 150 mM NaCl, 0.5% Nonidet P-40), 2 μg primary antibody (anti-β-catenin, anti-OTULIN) and protein G-Sepharose, 4 °C overnight; cells untreated or treated with Dox (2 µg/ml), MG132 (10 µM), Gliotoxin (1 µM), Imatinib (10 µM) or Nu7441 (10 µM); ABL1-KO cells
[3] = target: OTULIN (human (endogenous in MDA-MB-231)) (UniProt Q96BN8); assay: as above

Row | binding [1] | binding (Flag-β-catenin WT) | Substance | binding [2] | binding [3]
1 | binds | binds | HA-OTULIN WT (from UniProt Q96BN8 1-352) (enzyme) |  | 
2 | binds | binds | HA-OTULIN Y56D (from UniProt Q96BN8 1-352) (enzyme) |  | 
3 |  |  | OTULIN (from UniProt Q96BN8 1-352) (enzyme) | binds | 
4 |  |  | c-Abl (from UniProt P00519 1-1130) (enzyme) |  | binds
5 |  |  | linear ubiquitin assembly complex (LUBAC) (from UniProt Q96EP0 1-1072; Q9BYM8 1-510; Q9H0F6 1-387) | binds | 
